Literature values, collected in patent publication US20090227674A1, “Combination methods fo saha and targretin for treating cancer” (priority 2005, published 2009).

Test system: carcinogen-induced (N-methylnitrosourea) mammary tumors
Conditions: rats; SAHA administered in diet over the 130 days of the study; cited from earlier work

O=C(CCCCCCC(=O)Nc1ccccc1)NO [Vorinostat, N-Hydroxy-N′-phenyl octanediamide]
inhibition of development and continued growth of mammary tumors: effective at inhibiting the development and continued growth
